The other results are listed elsewhere or left out. The main result of the screen is listed elsewhere. These columns were measured beside it and carry no call. Compounds called inactive in the main read-out are mostly missing here. Potencies come from curve fits of mixed quality, noted in brackets.
Assay: Confirmation Concentration-Response Assay for Modulators of Lamin A Splicing
Conditions: HeLa lamin A splicing GFP/RFP minigene, Acumen, 48 h; for ratio activity: GFP/RFP ratio at top concentration; for ratio activity / RFP activity: at 46.1 µM; for RFP activity: RFP channel at top concentration
Summary of the method: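 S3 HeLa cells stably expressing lamin A-EGFP splicing minigene and DsRed2, 600 cells/well in Opti-MEM with 2% FBS, compounds 48 h at 37C; laser-scanning cytometry (488 nm), GFP/RFP total intensity ratio analysed; 0.5% DMSO.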

[1] = measured here: GFP/RFP ratio splicing readout
[2] = measured here: RFP viability/nonspecific counter channel

SMILES	ratio activity	RFP activity	AC50 [1]	AC50 [2]
Cc1noc(C)c1-c1ccc2ncnc(NCc3ccc(Cl)cc3)c2c1	-34.3%	-9.95%	28.2 µM [falling, partial curve, poor fit]	
Cc1ccccc1C(=O)c1c[nH]c(C(=O)NCc2ccco2)c1	-25.7%	-26.5%	3.16 µM [falling, full curve, poor fit]	
Nc1ccc(N2CCN(C(=O)c3cccs3)CC2)cc1	-46.6%	-5.92%	5.01 µM [falling, full curve, poor fit]	
Cc1cc(C)c(Cn2cnc(-c3ccc([N+](=O)[O-])cc3)c2)c(C)c1	-34.6%	-23.6%	2.82 µM [falling, full curve]	
Oc1cccc2ccc(Nc3ccccn3)nc12	112%	-98.4%	25.1 µM [rising, partial curve, poor fit]	2 µM [falling, full curve]
N=c1c2c(ncn1Cc1ccco1)Oc1ccc3ccccc3c1C2c1ccccc1 (configuration not stated)	3.86%	-95.1%		35.5 µM [falling, partial curve, poor fit]
COc1ccc2nc(SCC(=O)N3CC(=O)Nc4ccccc43)c(C#N)cc2c1	-36.5%	-55%	2.24 µM [falling, full curve, poor fit]	
Cc1noc(C)c1-c1ccc2ncnc(NC(C)c3ccco3)c2c1 (configuration not stated)	-6.52%	24.4%	2.24 µM [falling, full curve, poor fit]	
O=c1cc(N2CCOCC2)oc2c(-c3ccccc3)cccc12	-42.8%	-16.8%	7.08 µM [falling, partial curve, poor fit]	
Cc1cc(C(=O)N/N=C/c2cc([N+](=O)[O-])cc(C)c2O)n[nH]1	-34.4%	-5.58%	17.8 µM [falling, partial curve, poor fit]	
Cc1noc(C)c1-c1ccc2ncnc(NCc3cc(F)cc(F)c3)c2c1	-30.4%	18.3%	10 µM [falling, partial curve, poor fit]	
COc1cc(N[C@@H](C)CCCN)c2ncccc2c1	-30.9%	-18%	28.2 µM [falling, partial curve, poor fit]	
Cc1noc(C)c1-c1ccc2ncnc(NCc3ccc(-c4ccccc4)cc3)c2c1	-24.1%	-12.5%	7.08 µM [falling, full curve, poor fit]	
CCCCn1c(SCc2c(C)noc2C)nc2cc(S(N)(=O)=O)ccc21	-54.8%	30.1%	5.01 µM [falling, full curve]	5.62 µM [rising, partial curve, poor fit]
C=CCNC(=O)c1onc(CSc2cccc(C)c2)c1C(=O)O	-8.51%	-10.1%		6.31 µM [rising, single point]
Cc1noc(C)c1-c1ccc2ncnc(NCc3ccc(C(F)(F)F)o3)c2c1	-38.2%	17.6%	10 µM [falling, full curve]	
Cc1ccc(C(=O)CN2/C(=C(\O)c3ccccc3)C(=O)c3ccccc3S2(=O)=O)c(C)c1	-19.5%	32.2%		22.4 µM [rising, partial curve, poor fit]
Oc1c(Cl)cc(Cl)c(Cl)c1Cc1c(O)c(Cl)cc(Cl)c1Cl	-12.9%	10.2%		0.447 µM [rising, full curve, poor fit]
CCOC(=O)Cn1c(-c2nonc2NC(=O)c2ccccc2F)nc2ccccc21	-52.8%	17.5%	0.891 µM [falling, full curve, poor fit]	2.82 µM [rising, full curve, poor fit]
O=C1C=CC(=O)N1CCCCCCN1C(=O)C=CC1=O	-74.2%	-43.1%	7.08 µM [falling, full curve, poor fit]	3.16 µM [falling, full curve, poor fit]
CN(Cc1cnc2nc(N)nc(N)c2n1)c1ccc(C(=O)N[C@H](CCC(=O)O)C(=O)O)cc1	-37.1%	32.5%	0.0562 µM [falling, full curve, poor fit]	0.00501 µM [rising, full curve, poor fit]
Oc1ccc(N=Nc2n[nH]c(-c3ccc(Br)cc3)n2)cc1	-42%	-64.1%	11.2 µM [falling, full curve, poor fit]	14.1 µM [falling, full curve, poor fit]

Whole records as entered above:
`Cc1ccccc1C(=O)c1c[nH]c(C(=O)NCc2ccco2)c1` is listed with ratio activity: -25.7%; RFP activity: -26.5%; AC50 [1]: 3.16 µM [falling, full curve, poor fit]
`O=C1C=CC(=O)N1CCCCCCN1C(=O)C=CC1=O` is listed with ratio activity: -74.2%; RFP activity: -43.1%; AC50 [1]: 7.08 µM [falling, full curve, poor fit]; AC50 [2]: 3.16 µM [falling, full curve, poor fit]
